What all share (conditions): 10 mM Tris-Cl pH 7.5, 50 mM NaCl, 1 mM DTT, 0.25 mg/ml BSA, 2 mM MgCl2, 0.025% Nonidet P-40, 5% glycerol; 28 nM nucleosome library; 10 min on ice then 30 min …; high values mean tight binding; double strand, one strand shown
In assay [1] the test system is KLF4 + histone octamer. The experiment in a line: EMSA with sequencing. A general note: In EMSA bound probe runs differently from free probe, usually more slowly.
Assay [2] relates to SOX2 + histone octamer. The assay can be described thus: EMSA with sequencing.
The subject of assay [3] is c-MYC + MAX + histone octamer. The experiment in a line: EMSA with sequencing.
For assay [4], the system named is OCT4 + histone octamer. The experiment in a line: Pioneer-seq (competitive nucleosome EMSA with sequencing).

The list shows a part of the results. For some of these results: At the low end of the ranking the order means little.

Take “GATGGACCCTATACGCGGCCCTGTAGTGAGTCAGTGGTGCAAACAGGGATAGGTCTTTCAGATTCTAATCATGGTGCCTGTGCACTAGGCTGTGGCTAAACCTGCTTTGTAGTGTCTTTTCCTTGGGGTGACTCCTGTAGAACTGGGTGTTGCCAGCTGATATGGGTGATGCTCAGAGGCCTAAGGTTCAGGAGATTGGGAAGAGGAGGATGCCAGTCGGATAGTGTTCC”: the binding signal (log2 relative supershift) in assay [1] was 2.22; in assay [2] it was 0.00087; in assay [3] it was 0.232; in assay [4], -0.375.
“GATGGACCCTATACGCGGCTGTAAAGAAATGAAAGAATGTGCACATAAATACACACACACATGCACACACACACACACGCTTGCTGACACGCATGCATACACTTTTCTCTCCATGAGAACGTCAAGTTTGTTTGAGTGGTGGTGGGGAGGTTGATGTAGAACTAGAAGAGGTTTTTGGTGTGTGCTTTAATTACATTTTTCATTCAGCTTTGCCAGTCGGATAGTGTTCC”: the binding signal (log2 relative supershift) is 2.19 in assay [1], 1.14 in assay [2], 0.278 in assay [3] and -0.0413 in assay [4].
For “GATGGACCCTATACGCGGCGCAAAGACCTGCACCCTCCCACCTCCAACCAGAATGCCACCCACATGTGCTTCCACAGACACATTCTGGAGCTGCCACCCTCCACCCGGGTCCTTCTGTCTCTTTCTCAAACTAAATTAGCCAAAGTCGGCCAATCCTGGGTAGACTTCCACTACTGGCAAATCAGTCTTTTGATTGAGAAAGGTGCCCTTTGCCAGTCGGATAGTGTTCC” the same measures were 1.48, 0.735, 0.0647 and -0.33.
For “GATGGACCCTATACGCGGCCTGCCTGCCTCTGCCTTCTTGATCCTGATGACACCCAGGCCTGCAGCAAAAATCTCTGAGTATCGAAAGGCAAAGTCAGACAGAACAATGACACCAATACTGCATTATTCATCCATTCATATGCTCAGGCAGCTTGCATTTATTGAGTACCTTTGTATACAGCATTGAGCCAGCAGCTGTGAGAATCGCAATGCCAGTCGGATAGTGTTCC”, the binding signal (log2 relative supershift) in assay [1] is 1.94; in assay [2], 0.525; in assay [3], 0.562; in assay [4] it was -0.168.
Taken in the same sequence, the figures for “GATGGACCCTATACGCGGCGGTTGCTCTCAGCAGTGAGCCATTCATTCCTCAGAGATTTGGGAGCCCTCACCACGTGCAGACGCTGTGCTGCAGGCTGGGAACCACAGGAGAAATGGCTGAATGTTCTGTGGGTGTGGCTGTAGGCAGAGGGCTGATCAGTGAGGTGGGGTGGTGACAGTCTTCTATAGGATGTCGTATGCATCATTTATTGCCAGTCGGATAGTGTTCC” were 1.74, 0.522, 0.262 and -0.0355.
Turning to “GATGGACCCTATACGCGGCATTTGGGCATGGGTACTGATCTCATACATCAAACACACAAGTACATACATACAATGCACACACACAAACTCAGGAACACCTCCATGAATGCTGACCACATGCACTTGCATATGCAAGCATCAGGCATGCGCACACCCCCACCACCACATTCATGTGCATATGCAGACATGCACATACATGTGCACCTCCATTGCCAGTCGGATAGTGTTCC”, the binding signal (log2 relative supershift) in assay [1] is 1.34; in assay [2], 0.362; in assay [3], 0.841; in assay [4], -0.34.
For “GATGGACCCTATACGCGGCAGGGGGACAATGTCAAAGGCACATGGAAGCTCCCCTTTTATTATTAGCTGGGTGTGTGCCCAGCTCCTCCCAAACAGAACAGGGCTGGGACTCGAGGTGGAGGCTGAGGCTTAACCCCCTCCCTGGTGCCATTGTCCTGCAGACAGCCAGAGGGAGGAGGCACCAGCCCAAGGGAGGAGGTATTAGCCCTCTGCCAGTCGGATAGTGTTCC”, the binding signal (log2 relative supershift) was 2.43 in assay [1], 1.81 in assay [2], 0.895 in assay [3] and -0.515 in assay [4].
Taken in the same sequence, the figures for “GATGGACCCTATACGCGGCATGGTTTTGCCTATGTCCACCTACTGAGAGGGATAGTATAATTACCTTAACAATGATGCTCCCTTCATCATAGCCCAAAGCGACATTGTTTGACCCTCTTAGACTGGCCACGCACCATACCCTCTCCATTCCATAATTCAGTGTGCTCTCAAGCCGGTAGGTGCTTGAATGCCAAATACGTACTGTTCCTATGCCAGTCGGATAGTGTTCC” were 1.23, 0.705, 0.401 and -0.265.
For “GATGGACCCTATACGCGGCTGCATGCATTTCTGCTATTCAGCACTGCAAAGGTTGGTTATCACATTGAAAGCTCCATGACAAGAAGGAGCCAGGACAATCTGAAACCAAGCAGAATATGCAACTGAAAGAACATGCGCCTTGAAATCAGACCAAACCTGGGTTTGAATTCTGGGCTTGAACCCTGGTGCTGACATTTTTAGCTGTATCACTGCCAGTCGGATAGTGTTCC” the same measures were 0.799, 0.148, 0.0807 and -0.259.
In the case of “GATGGACCCTATACGCGGCGAGCTTTCACCGCGGAGAGAACAACTTGAACAAAGAGGGAACTGTGGGCGTGGGGAAAGGGAGGTTGGGCGGGACAGGACCGCGCCGAAGTGCACGGTGCCTGCGGGATCAGGCCTCCCAGAGCCTGGGTGTCAGCTGAGGACTCCCATGATCTCTGCTGGCAGCCAGGAGCAGGCAGTTTGCCTGTTAGGTGCCAGTCGGATAGTGTTCC”, the binding signal (log2 relative supershift) is 1.55 in assay [1], 1.43 in assay [2], 0.28 in assay [3] and -0.233 in assay [4].

The values above are taken from paper PMC12370185.
